PubChem BioAssay AID1671195, Yale University – 2021

Assay: 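Knockdowns that increase or decrease uptake of fluorescent LDL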 (primary screen)
System: human Huh7 hepatoma cells
Reagents: siRNA pool against human genes, 18 nM
Duration: about 2 to 2.5 days of knockdown, then 8 h LDL uptake
Conditions: DiI-labelled LDL at 30 µg/ml for 8 h, in lipoprotein-deficient serum medium
Measurement: 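Fluorescent LDL signal imaged in cells, scaled to the plate median, robust z-score for each replicate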
Scale: robust z-score: higher = more LDL uptake after knockdown
Call rule: 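Active when two or more replicates show a robust z-score above 2 or below -2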
The whole screen tested about 22,000 reagents; this is a random part of them. About 1,510 of all reagents (6.9%) were called active. 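Active includes knockdowns raising or lowering LDL uptake; positive z-scores mean more uptake, negative mean less.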 Entries without a mark were called inactive. No sequences are given here.

After knock-down of HSDL2 [SID442894597] the results were robust z-score, replicate 1 = 0.266; robust z-score, replicate 2 = -0.26; robust z-score, replicate 3 = -0.247. LOC149157 (retired record) [SID442884362] scored robust z-score, replicate 1 = -2.07 (active); robust z-score, replicate 2 = -2.11; robust z-score, replicate 3 = -1.82. After knock-down of KCNH2 [SID442892242], the screen gave robust z-score, replicate 1 = -0.00116; robust z-score, replicate 2 = 0.292; robust z-score, replicate 3 = 0.289. After knock-down of PBX4 [SID442895731], the record shows robust z-score, replicate 1 = -0.508; robust z-score, replicate 2 = 0.0427; robust z-score, replicate 3 = -0.137. With knock-down of LINC00906 [SID442904155], the screen gave robust z-score, replicate 1 = -1.88; robust z-score, replicate 2 = -1.17; robust z-score, replicate 3 = -1.48. For NTN1 [SID442888234], the values are robust z-score, replicate 1 = 0.602; robust z-score, replicate 2 = 0.897; robust z-score, replicate 3 = 0.781.

Against TMT1B [SID442900966], the entry reads robust z-score, replicate 1 = -1.16; robust z-score, replicate 2 = -0.184; robust z-score, replicate 3 = -1.15. With knock-down of CEP41 [SID442891724], the record shows robust z-score, replicate 1 = 0.237; robust z-score, replicate 2 = 0.143; robust z-score, replicate 3 = 0.373. SMYD4 [SID442900999] gave robust z-score, replicate 1 = 0.00333; robust z-score, replicate 2 = -1.71; robust z-score, replicate 3 = -0.805. After knock-down of GSR [SID442887282], the record shows robust z-score, replicate 1 = 0.753; robust z-score, replicate 2 = 1; robust z-score, replicate 3 = 1.08. Knock-down of LINC02873 [SID442890759] resulted in: robust z-score, replicate 1 = 0.352; robust z-score, replicate 2 = 0.237; robust z-score, replicate 3 = 0.526. After knock-down of LOC391733 (retired record) [SID442896814] the results were robust z-score, replicate 1 = -0.236; robust z-score, replicate 2 = -0.64; robust z-score, replicate 3 = -0.0701.

After knock-down of LOC387764 (retired record) [SID442883472], the record shows robust z-score, replicate 1 = 2.71 (active); robust z-score, replicate 2 = 2.41; robust z-score, replicate 3 = 3.38. Knock-down of LOC346887 (retired record) [SID442889409] came out at: robust z-score, replicate 1 = 0.017; robust z-score, replicate 2 = 2.03; robust z-score, replicate 3 = -0.351. Silencing of EEF1A1P47 [SID442889087] came out at: robust z-score, replicate 1 = 1.08; robust z-score, replicate 2 = 0.284; robust z-score, replicate 3 = 0.475. After knock-down of LINC01142 [SID442884535], the screen gave robust z-score, replicate 1 = -2.45 (active); robust z-score, replicate 2 = -2.29; robust z-score, replicate 3 = -2.34.
